In PubChem BioAssay AID272 (DTP/NCI, 2004):
The list shows only some results of the screen, not a fair sample: it gathers tests that were run many times, whatever their T/C, doses with no T/C, and many T/C values between a quarter and a half above the control. Further doses and runs are listed elsewhere. T/C is the treated group as % of the vehicle group. Some doses have a count of surviving animals in place of a T/C: the source holds a T/C of zero for them, seemingly a mark for toxic or unscored doses. Some doses without a T/C left all or most animals alive at the check, yet need not have been tolerated: the source hardly ever lists a survival T/C far under the control, and the zero likely stands for such cases as well. Survivors were counted at the toxicity check, usually on the fifth day, unless a day is given; later deaths do not show. Schedule codes are those of the source, taken here to give the interval after Q, in days (D) or hours (H), and the number of doses after X. Some doses were run more than once; the results are listed from low to high. Additions like (4×) give the number of equal values in this list. Where survival is the endpoint, this PubChem deposit counts one and a half times the control or more as active, and values a quarter to a half above the control carry no call in these data; other NCI protocols may use other cut-offs. Some T/C values are followed by the survivors on the day toxicity was checked, most often the fifth; where none is given, no animal had died by that day.

Test system: Lewis lung carcinoma i.m., BDF1 mice, T/C %
Experiment: NCI In Vivo Anticancer Drug Screen. Data for tumor model Lewis Lung Carcinoma (intramuscular) in B6D2F1 (BDF1) mice
Settings: T/C endpoint: median survival time, higher T/C = longer survival
Procedure, shortened: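 Tumour-bearing mice were dosed with compound, and either their survival or their tumour size was measured. Results were expressed relative to vehicle-treated controls as T/C.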

With `O=P1(N(CCCl)CCCl)NCCCO1` (stereo not drawn) the T/C (dose: 100.0 mg/kg/injection, schedule: Q01DX001 (ip), vehicle: saline, evaluated on day 13) was 153 % of control, the T/C (dose: 100.0 mg/kg/injection, schedule: Q01DX001 (ip), vehicle: saline, evaluated on day 40) was 137 % of control and the T/C (dose: 100.0 mg/kg/injection, schedule: Q01DX001 (ip), vehicle: saline, evaluated on day 60) was 153 % of control. The T/C (dose: 100.0 mg/kg/injection, schedule: Q01DX001 (ip), vehicle: saline, evaluated on day 93) was 403 % of control, the survivor count (dose: 100.0 mg/kg/injection, schedule: Q01DX009 (ip), vehicle: saline) was 10 of 10 and the T/C (dose: 100.0 mg/kg/injection, schedule: Q03DX010 (ip), vehicle: saline, evaluated on day 9) was 73 % of control. For the same molecule, the T/C (dose: 100.0 mg/kg/injection, schedule: Q03DX010 (ip), vehicle: saline, evaluated on day 13) was 34 % of control, the survivor count (dose: 100.0 mg/kg/injection, schedule: Q03DX010 (ip), vehicle: saline) was 2 of 8 and 8 of 8 and the T/C (dose: 108.0 mg/kg/injection, schedule: Q01DX001 (ip), vehicle: saline, evaluated on day 10) was 135 % of control. For the same molecule, the T/C (dose: 108.0 mg/kg/injection, schedule: Q01DX001 (ip), vehicle: saline, evaluated on day 36) was 97 % of control, the T/C (dose: 108.0 mg/kg/injection, schedule: Q01DX001 (ip), vehicle: saline, evaluated on day 38) was 144 % of control and the T/C (dose: 108.0 mg/kg/injection, schedule: Q01DX001 (ip), vehicle: saline, evaluated on day 40) was 132, 137, 142, 153 % of control. For the same molecule, the T/C (dose: 108.0 mg/kg/injection, schedule: Q01DX001 (ip), vehicle: saline, evaluated on day 41) was 139 and 142 % of control, the T/C (dose: 108.0 mg/kg/injection, schedule: Q01DX001 (ip), vehicle: saline, evaluated on day 42) was 92 [7 of 8 alive], 111, 126, 128 % of control and the T/C (dose: 108.0 mg/kg/injection, schedule: Q01DX001 (ip), vehicle: saline, evaluated on day 43) was 103 % of control. For the same molecule, the T/C (dose: 108.0 mg/kg/injection, schedule: Q01DX001 (ip), vehicle: saline, evaluated on day 47) was 109, 134, 137, 163, 184 % of control, the T/C (dose: 108.0 mg/kg/injection, schedule: Q01DX001 (ip), vehicle: saline, evaluated on day 50) was 146 [7 of 8 alive] and 183 % of control [7 of 8 alive] and the T/C (dose: 108.0 mg/kg/injection, schedule: Q01DX001 (ip), vehicle: saline, evaluated on day 62) was 135 % of control [9 of 10 alive]. For the same molecule, the T/C (dose: 108.0 mg/kg/injection, schedule: Q01DX001 (ip), vehicle: saline, evaluated on day 66) was 168 % of control, the survivor count (dose: 108.0 mg/kg/injection, schedule: Q01DX001 (ip), vehicle: saline) was 7 of 8 and the T/C (dose: 108.0 mg/kg/injection, schedule: Q01DX001 (sc), vehicle: saline) was 129 % of control. For the same molecule, the T/C (dose: 108.0 mg/kg/injection, schedule: Q01DX011 (ip), vehicle: saline, evaluated on day 42) was 106, 120, 162 % of control [7 of 8 alive], the T/C (dose: 108.0 mg/kg/injection, schedule: Q01DX011 (ip), vehicle: saline, evaluated on day 47) was 130 % of control and the survivor count (dose: 108.0 mg/kg/injection, schedule: Q08DX003 (ip), vehicle: saline) was 7 of 8. For the same molecule, the T/C (dose: 180.0 mg/kg/injection, schedule: Q01DX001 (ip), vehicle: saline, evaluated on day 10) was 146 % of control, the T/C (dose: 180.0 mg/kg/injection, schedule: Q01DX001 (ip), vehicle: saline, evaluated on day 42) was 150 and 161 % of control [7 of 8 alive] and the T/C (dose: 180.0 mg/kg/injection, schedule: Q01DX001 (ip), vehicle: saline, evaluated on day 50) was 138 and 219 % of control. For the same molecule, the T/C (dose: 180.0 mg/kg/injection, schedule: Q01DX001 (ip), vehicle: saline, evaluated on day 62) was 146 % of control [9 of 10 alive], the survivor count (dose: 180.0 mg/kg/injection, schedule: Q01DX001 (ip), vehicle: saline) was 3 of 8, 4 of 8 (2×), 5 of 8, 6 of 8, 8 of 10 and the T/C (dose: 180.0 mg/kg/injection, schedule: Q01DX001 (sc), vehicle: saline) was 143 % of control. For the same molecule, the survivor count (dose: 180.0 mg/kg/injection, schedule: Q08DX003 (ip), vehicle: saline) was 6 of 8, the survivor count (dose: 200.0 mg/kg/injection, schedule: Q01DX001 (ip), vehicle: methylcellulose (MC)) was 3 of 8 and the T/C (dose: 200.0 mg/kg/injection, schedule: Q01DX001 (ip), vehicle: saline, evaluated on day 9) was 100 % of control. The T/C (dose: 200.0 mg/kg/injection, schedule: Q01DX001 (ip), vehicle: saline, evaluated on day 13) was 195 % of control, the T/C (dose: 200.0 mg/kg/injection, schedule: Q01DX001 (ip), vehicle: saline, evaluated on day 60) was 195 % of control and the T/C (dose: 200.0 mg/kg/injection, schedule: Q01DX001 (ip), vehicle: saline, evaluated on day 93) was 100 % of control. For the same molecule, the survivor count (dose: 200.0 mg/kg/injection, schedule: Q03DX010 (ip), vehicle: saline) was 0 of 8, the survivor count (dose: 300.0 mg/kg/injection, schedule: Q01DX001 (ip), vehicle: saline) was 5 of 8 and 7 of 10 and the survivor count (dose: 300.0 mg/kg/injection, schedule: Q08DX003 (ip), vehicle: saline) was 6 of 8. For the same molecule, the survivor count (dose: 400.0 mg/kg/injection, schedule: Q01DX001 (ip), vehicle: methylcellulose (MC)) was 0 of 8, the survivor count (dose: 400.0 mg/kg/injection, schedule: Q01DX001 (ip), vehicle: saline) was 4 of 10 and the survivor count (dose: 400.0 mg/kg/injection, schedule: Q01DX001 (sc), vehicle: saline) was 2 of 8. The survivor count (dose: 460.0 mg/kg/injection, schedule: Q01DX001 (ip), vehicle: saline) was 2 of 8.
